Results on one compound are retold here after PMC9333195, “Discovery of 2-Phenylquinoline-4-Carboxylic Acid Derivatives as Novel Histone Deacetylase Inhibitors” (Frontiers in Chemistry, 2022).

Assay [1] relates to K562 cells. Description: CCK-8 antiproliferative assay, K562. As to conditions: Homo sapiens, K562, read-out: K562 percentage inhibitory rate. (In general: Tetrazolium assays rely on reduction of a dye to a coloured formazan, in cell work by metabolically active cells.)
The test system of assay [2] is A2780. Description: CCK-8 antiproliferative assay, A2780. As to conditions: Homo sapiens, A2780, 72 h, read-out: Antiproliferative IC50 A2780.
The subject of assay [3] is MCF-7. Kind of assay: CCK-8 antiproliferative assay, MCF-7. The note with it: Homo sapiens, MCF7, 72 h, read-out: Antiproliferative IC50 MCF-7.
Assay [4] concerns MDA-MB-231. Description: CCK-8 antiproliferative assay, MDA-MB-231. As to conditions: Homo sapiens, MDA-MB-231, 72 h, read-out: Antiproliferative IC50 MDA-MB-231.
Assay [5] concerns Hela nucleus extract containing a mixture of HDAC isoforms. Kind of assay: In vitro HDAC inhibitory assay, HeLa cell nuclear extract screening at 2 µM. It is filed as biochemical. The note with it: 2.0 µM compound, mean of three experiments. The procedure:
The HDAC enzyme inhibitory activities of synthesized compounds were evaluated against Hela nucleus extract containing a mixture of HDAC isoforms. Percentage inhibitory rate (PIR) was calculated to determine the activity of tested compounds (Table 1). The compounds (D1-28) were firstly synthesized for the activity screening. […] Compared with the unsubstituted D1, the difluoride-substitution and phenyl substitution can be conducive to the inhibitory activity. […] Similarly, the methyl substitution and methoxy substitution in the phenyl ring reduced the HDAC inhibitory potency. […] To avoid excessive molecular weight and increase the HDAC inhibitory activity, the R group with small size and molecular weight could be reserved for further structural modification.
All HDAC enzymes were purchased from BPS Bioscience. […] After standing for 20 min, the fluorescence intensity was measured at the excitation and emission wavelengths of 360 and 460 nm with a microplate reader. The inhibition rate was calculated from the fluorescence intensity readings of the test wells relative to the control wells, and the IC50 curve and value were determined by GraphPad Prism 6.0 software.

The subject of assay [6] is MDA-MB-468. Kind of assay: CCK-8 antiproliferative assay, MDA-MB-468. As to conditions: Homo sapiens, MDA-MB-468, 72 h, read-out: Antiproliferative IC50 MDA-MB-468.
Assay [7] relates to A549. Kind of assay: CCK-8 antiproliferative assay, A549. The note with it: Homo sapiens, A549, 72 h, read-out: Antiproliferative IC50 A549.

On to `O=C(CCCCCCC(=O)Nc1ccccc1)NO` [SAHA, Vorinostat, reference compound], for which, in assay [1], the inhibition at 2 µM turned out to be 53.07 ± 0.25%. Besides, the IC50 in assay [2] was found to be 4.56 ± 0.24 µM; in assay [3], 5.77 ± 0.15 µM; in assay [4], 4.21 ± 0.35 µM; in assay [6], 3.75 ± 0.21 µM; in assay [7], 5.88 ± 0.45 µM. Besides, the “HDACs percentage inhibitory rate (PIR)” value in assay [5] was determined as 50.12 ± 0.74%.

The IC50 is the concentration needed to halve the response being measured.
